Measurements reported in US20110318474A1, “FOOD PRODUCTS ENRICHED WITH METHYLXANTHINES” (priority 2008, published 2011).

Legend:
tasters (bitterness) = settings: cited from earlier work; for taste of theobromine spiked with compound: theobromine 3 mmol per litre, compound 2.2, 22.2 or 222 micromol per litre
[1] = tested on: trained panellists (bitterness perception); settings: 120 mg caffeine per 25 g milk chocolate, 25 trained panellists, 5% level of significance

Compound	taste of theobromine spiked with compound (tasters (bitterness))	also measured
OC[C@H]1O[C@@H](c2c(O)cc(O)c3c2O[C@H](c2ccc(O)c(O)c2)[C@@H](O)C3)[C@H](O)[C@@H](O)[C@@H]1O [8-C-glucosylated catechin]		bitterness intensity of theobromine (tasters (bitterness); theobromine 600 ppm combined with about 10 ppm compound): not decreased
Oc1cc(O)c2c(c1)O[C@H](c1ccc(O)c(O)c1)[C@@H](O)C2 [(+)-catechin]	did not lead to decrease of bitterness	
Oc1cc(O)c2c(c1)O[C@@H](c1ccc(O)c(O)c1)[C@@H](O)C2 [(+)—epicatechin]	did not lead to decrease of bitterness	
OC[C@H]1O[C@@H](c2c(O)cc(O)c3c2O[C@@H](c2ccc(O)c(O)c2)[C@H](O)C3)[C@H](O)[C@@H](O)[C@@H]1O [(−)-catechin-8-C-beta-D-glucopyranoside]	less bitter, softer and more pleasant taste	
Cn1c(=O)c2c(ncn2C)n(C)c1=O [caffeine, 1,3,7-trimethylxanthine]		bitterness perception versus plain milk chocolate ([1]; study with cyclodextrin complex): more bitter than the plain milk chocolate; bitterness perception versus plain milk chocolate ([1]; study with tannic acid complex): more bitter than the other two samples

Read-outs that look alike come from different tables or passages of the source.
